Read-outs that look alike come from different tables or passages of the source. These are yes or no findings as the source states them, for the method shown. Some entries that bind do so weakly or less than the wild type. For some assays here: Sequences can lack the tags named with a protein.
Experiments:
[1] = target: KmSte7 (Ste7 of Kluyveromyces marxianus), Gal4-BD fusion (K. marxianus); assay: two-hybrid; Matchmaker GAL4 system; Ste5 forms on Gal4-AD (pGADT7, AH109), Ste7 orthologs on Gal4-BD (pGBKT7, Y187), diploids on SC-Leu-Trp; quantitative β-galactosidase assay of cell lysate with ONPG; units of the same BD-Ste7 with void pGADT7 subtracted; mean of three colonies
[2] = target: KmSte7 (Ste7 of Kluyveromyces marxianus), Gal4-BD fusion (K. marxianus); assay: as above; remark: listed apart in the source

binding [1]	binding [2]	Molecule
binds		KmSte5ΔS (KmSte5 with the negatively charged segment shortened to the length of that of KlSte5), Gal4-AD fusion (from UniProt A0ABX6ETE1 1-763)
	binds	ScSte5 (Ste5 of Saccharomyces cerevisiae), Gal4-AD fusion (protein, UniProt P32917 1-917) MMETPTDNIVSPFHNFGSSTQYSGTLSRTPNQIIELEKPSTLSPLSRGKKWTEKLARFQRSSAKKKRFSPSPISSSTFSFSPKSRVTSSNSSGNEDGNLMNTPSTVSTDYLPQHPHRTSSLPRPNSNLFHASNSNLSRANEPPRAENLSDNIPPKVAPFGYPIQRTSIKKSFLNASCTLCDEPISNRRKGEKIIELACGHLSHQECLIISFGTTSKADVRALFPFCTKCKKDTNKAVQCIPENDELKDILISDFLIHKIPDSELSITPQSRFPPYSPLLPPFGLSYTPVERQTIYSQAPSLNPNLILAAPPKERNQIPQKKSNYTFLHSPLGHRRIPSGANSILADTSVALSANDSISAVSNSVRAKDDETKTTLPLLRSYFIQILLNNFQEELQDWRIDGDYGLLRLVDKLMISKDGQRYIQCWCFLFEDAFVIAEVDNDVDVLEIRLKNLEVFTPIANLRMTTLEASVLKCTLNKQHCADLSDLYIVQNINSDESTTVQKWISGILNQDFVFNEDNITSTLPILPIIKNFSKDVGNGRHETSTFLGLINPNKVVEVGNVHDNDTVIIRRGFTLNSGECSRQSTVDSIQSVLTTISSILSLKREKPDNLAIILQIDFTKLKEEDSLIVVYNSLKALTIKFARLQFCFVDRNNYVLDYGSVLHKIDSLDSISNLKSKSSSTQFSPIWLKNTLYPENIHEHLGIVAVSNSNMEAKKSILFQDYRCFTSFGRRRPNELKIKVGYLNVDYSDKIDELVEASSWTFVLETLCYSFGLSFDEHDDDDEEDNDDSTDNELDNSSGSLSDAESTTTIHIDSPFDNENATANMVNDRNLLTEGEHSNIENLETVASSVQPALIPNIRFSLHSEEEGTNENENENDMPVLLLSDMDKGIDGITRRSSFSSLIESGNNNCPLHMDYI

Reference: publication PMC9048679, “Correlation Between Improved Mating Efficiency and Weakened Scaffold-Kinase Interaction in the Mating Pheromone Response Pathway Revealed by Interspecies Complementation” (Frontiers in Microbiology, 2022)
